Laboratory results as given in article PMC2967473, “PP2A1 Binding, Cell Transducing and Apoptotic Properties of Vpr77–92: A New Functional Domain of HIV-1 Vpr Proteins” (PLoS ONE, 2010).

What was measured:
[1] = molecular target: T1, 89.6-Vpr dodecapeptide 29 (cellulose-bound) (HIV-1 (89.6 isolate)); experiment: peptide or protein array; both purified
T1 sequence (peptide): VEALIRILQQLL

[2] = molecular target: T2, 89.6-Vpr dodecapeptide 30 (cellulose-bound) (HIV-1 (89.6 isolate)); experiment: peptide or protein array; both purified
T2 sequence (peptide): ALIRILQQLLFI

[3] = molecular target: T3, 89.6-Vpr dodecapeptide 31 (cellulose-bound) (HIV-1 (89.6 isolate)); experiment: peptide or protein array; both purified
T3 sequence (peptide): IRILQQLLFIHF

[4] = molecular target: T4, 89.6-Vpr dodecapeptide 32 (cellulose-bound) (HIV-1 (89.6 isolate)); experiment: peptide or protein array; both purified
T4 sequence (peptide): ILQQLLFIHFRI

[5] = molecular target: T5, 89.6-Vpr dodecapeptide 39 (cellulose-bound) (HIV-1 (89.6 isolate)); experiment: peptide or protein array; both purified
T5 sequence (peptide): RHSRIGIIQQRR

[6] = molecular target: T6, 89.6-Vpr dodecapeptide 40 (cellulose-bound) (HIV-1 (89.6 isolate)); experiment: peptide or protein array; both purified
T6 sequence (peptide): SRIGIIQQRRTR

[7] = molecular target: T7, 89.6-Vpr dodecapeptide 41 (cellulose-bound) (HIV-1 (89.6 isolate)); experiment: peptide or protein array; both purified
T7 sequence (peptide): IGIIQQRRTRNG

[8] = molecular target: T8, Recombinant full length Vpr-T protein encoded by the HIV-1 (89.6 isolate) (HIV-1 (89.6 isolate)); experiment: affinity chromatography; Vpr-T held on a 1 mL nickel-charged iminodiacetic acid-Sepharose-4B column; 16 µg PP2A1 loaded in buffer C (25 mM TrisHCl pH 7.4, 50 mM NaCl, 0.1 mM EDTA), 10 mL wash, 18 mL linear gradient to 1 M NaCl; fractions assayed for phosphorylase a phosphatase activity; both purified
T8 sequence: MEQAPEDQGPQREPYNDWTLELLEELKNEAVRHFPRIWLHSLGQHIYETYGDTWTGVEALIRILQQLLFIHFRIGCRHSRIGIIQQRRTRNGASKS

Measured: binding

trimeric PP2A1 holoenzyme purified from pig brain (complex)
no binding: [1] | [2] | [3] | [4]
binds: all other assays above

Results are given in words; binding and its absence hold for the method and conditions named. For some assays here: A result given as binding can be weak or reduced; the word gives no strength.
